Experimental data as given in patent publication US20170204445A1, “IN VIVO SITE-SPECIFIC PROTEIN TAGGING USING ENGINEERED SORTASE VARIANTS” (priority 2016, published 2017).
Results are given in words; binding and its absence hold for the method and conditions named. Some entries that bind do so weakly or less than the wild type.

Amino acid sequences for entries named in this document (tags omitted). A change or cut given only in a name is not applied to a line headed by its entry. Residues count along the entry.
UniProt P08581, residues 25-932: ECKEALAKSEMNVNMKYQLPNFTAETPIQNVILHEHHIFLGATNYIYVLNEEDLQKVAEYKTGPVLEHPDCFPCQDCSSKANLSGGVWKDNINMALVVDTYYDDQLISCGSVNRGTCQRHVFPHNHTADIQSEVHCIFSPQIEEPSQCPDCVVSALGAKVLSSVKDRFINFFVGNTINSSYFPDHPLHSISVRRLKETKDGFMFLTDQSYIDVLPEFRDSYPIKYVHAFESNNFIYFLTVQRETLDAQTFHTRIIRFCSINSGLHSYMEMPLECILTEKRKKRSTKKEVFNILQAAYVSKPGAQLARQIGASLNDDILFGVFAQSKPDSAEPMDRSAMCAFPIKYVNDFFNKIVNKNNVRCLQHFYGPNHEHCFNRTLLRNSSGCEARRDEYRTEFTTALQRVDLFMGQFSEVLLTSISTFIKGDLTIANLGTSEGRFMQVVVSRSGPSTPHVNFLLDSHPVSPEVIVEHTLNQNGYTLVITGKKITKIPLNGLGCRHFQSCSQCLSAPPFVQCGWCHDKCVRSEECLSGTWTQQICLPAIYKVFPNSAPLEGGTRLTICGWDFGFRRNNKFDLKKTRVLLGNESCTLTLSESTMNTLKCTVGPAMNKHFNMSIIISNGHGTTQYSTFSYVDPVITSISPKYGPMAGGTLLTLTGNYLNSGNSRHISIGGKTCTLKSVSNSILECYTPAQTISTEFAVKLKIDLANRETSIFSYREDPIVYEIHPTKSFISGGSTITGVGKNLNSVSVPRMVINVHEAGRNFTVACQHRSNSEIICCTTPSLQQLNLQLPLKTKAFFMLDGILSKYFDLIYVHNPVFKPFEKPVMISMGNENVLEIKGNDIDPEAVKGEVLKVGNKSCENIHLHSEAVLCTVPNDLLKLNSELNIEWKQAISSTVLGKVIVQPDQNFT
UniProt P14210: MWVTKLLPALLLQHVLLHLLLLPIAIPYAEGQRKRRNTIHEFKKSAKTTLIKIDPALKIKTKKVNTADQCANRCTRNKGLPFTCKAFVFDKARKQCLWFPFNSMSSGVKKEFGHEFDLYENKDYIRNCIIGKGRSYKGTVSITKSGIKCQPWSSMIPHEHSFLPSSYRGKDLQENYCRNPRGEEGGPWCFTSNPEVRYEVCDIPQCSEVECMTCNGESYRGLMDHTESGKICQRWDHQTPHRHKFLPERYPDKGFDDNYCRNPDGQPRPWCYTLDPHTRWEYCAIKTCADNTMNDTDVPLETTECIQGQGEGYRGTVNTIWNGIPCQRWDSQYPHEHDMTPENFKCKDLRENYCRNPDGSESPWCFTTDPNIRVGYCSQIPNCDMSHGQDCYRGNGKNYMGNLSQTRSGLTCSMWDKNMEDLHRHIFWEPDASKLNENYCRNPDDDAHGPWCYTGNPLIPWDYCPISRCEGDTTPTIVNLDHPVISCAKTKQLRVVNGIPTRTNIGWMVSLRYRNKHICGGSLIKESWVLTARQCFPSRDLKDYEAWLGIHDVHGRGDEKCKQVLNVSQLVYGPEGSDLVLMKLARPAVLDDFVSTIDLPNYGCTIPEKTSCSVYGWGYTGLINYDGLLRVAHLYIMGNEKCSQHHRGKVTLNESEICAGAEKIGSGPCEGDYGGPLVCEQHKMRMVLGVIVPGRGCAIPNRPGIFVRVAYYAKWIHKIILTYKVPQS

Biological target: recombinant human Met-Fc (R&D Systems, 358-MT-100) (human) (UniProt P08581)
Assay: yeast surface display, flow cytometry titration with Met-Fc

binding: binds
Substance: NK1 displayed on yeast with pCL-NK1-Aga2p-cGFP (from UniProt P14210 28-210; P32781 19-87; P42212 1-238) (ligand)
